The subject of one data set is Saphenous veins. Put plainly: Vessel compliance measured with a pressure transducer. The settings on record: for relative compliance (slope of the compliance curve pertaining to physiologic pressure), Mean: 3 cm vessel sections, 1 ml saline in 0.1 ml increments; for compliance difference among artery, PTP treated vein and EDC treated vein: One-Way ANOVA; for compliance difference among artery, PTP treated vein and EDC treated vein / compliance vs untreated control vein (One-Way ANOVA): p<0.05 considered significant. Also noted: species or system Yorkshire pigs.

For a further data set, the system named is Porcine jugular veins. Put plainly: Elasticity of venous tissue: stress-strain curves with a tensiometer. Also noted: species or system pigs.

`CCN=C=NCCCN(C)C` [EDC, 1-ethyl-3-(3-dimethylaminopropyl)-carbodiimide]: in the data set with Saphenous veins, the “relative compliance (slope of the compliance curve pertaining to physiologic pressure), Mean” value turned out to be 792; the “compliance difference among artery, PTP treated vein and EDC treated vein” value is listed as “no significant difference”; the “compliance vs untreated control vein (One-Way ANOVA)” value is given as “significantly different from untreated control vein”.

With `O=C1OC2(c3cc(I)c(O)c(I)c3Oc3c2cc(I)c(O)c3I)c2c(Cl)c(Cl)c(Cl)c(Cl)c21` [PTP, Rose Bengal], the “Young's Modulus (modulus of elasticity)” value with Porcine jugular veins (0.1% Rose Bengal, 532 nm laser, 25 J/cm^2, N = 17, mean + SD) is given as 1008+555 KPa. For the same compound, the “increase of modulus of elasticity of venous grafts” value with Porcine jugular veins (treated vs untreated veins) came out at 2 fold. In the data set on Saphenous veins, the “relative compliance (slope of the compliance curve pertaining to physiologic pressure), Mean” value was found to be 863; the “compliance difference among artery, PTP treated vein and EDC treated vein” value is reported as “no significant difference”; the “compliance vs untreated control vein (One-Way ANOVA)” value is “significantly different from untreated control vein”.

(Values after patent US12208001B2, “Methods and systems for preventing or reducing stenosis in a subject receiving a graft” (The General Hospital Corporation, priority 2012, dated 2025).)
